At least one compound was matched to its structure with a doubt left.
Test system: atopic dermatitis-induced animal model by DNCB
Test: Thickness of the epidermis and dermis (H&E), DNCB-induced atopic dermatitis model
Type: in vivo, mice
Conditions: 15th day, FIGS. 5 to 7
Protocol: […] of a solution of 2,4-Dinitrochlorobenzene (DNCB) dissolved in acetone at a concentration of 1% or 2% was applied to the backs of mice with hair removed twice a day for 2 days, then on the 3rd day, a solution of […] containing 1% concentration of DNCB dissolved in acetone was applied twice daily, and additional applications of a solution of […] containing 1% concentration of DNCB dissolved in acetone or a solution diluted 10 times were applied twice daily on the shaved backs of mice until the 10th to 11th day starting from the day of the initial application of DNCB solution, to induce atopic dermatitis (FIG. 1). […]
After collecting skin tissues from each group of mice, the tissue samples were sliced and then fixed in 10% formalin solution for 24 hours, then rinsed with distilled water, processed into paraffin blocks, and sectioned into […] thickness slices, these slices were stained with Hematoxylin and Eosin (H&E), and observed under an optical microscope, and then the thickness of the epithelium and dermis were measured using image analysis software and analyzed using analysis software.

Structure (SMILES): C[C@@H]1C[C@H]2[C@@H]3CCC4=CC(=O)C=C[C@]4(C)[C@@]3(F)[C@@H](O)C[C@]2(C)[C@@]1(O)C(=O)CO [DEX, Dexamethasone]
- dermal thickness (compared to the DNCB group and the normal Sham group): recovered close to that of the normal Sham group
- skin epithelium thickness (compared to the DNCB group): significantly reduced
